Drawing on the supplement of paper PMC6411743, this text covers NP40-soluble protein abundance for 16 targets.

Amino acid sequences for entries named in this document (tags omitted). A change or cut given only in a name is not applied to a line headed by its entry.
UniProt Q92932: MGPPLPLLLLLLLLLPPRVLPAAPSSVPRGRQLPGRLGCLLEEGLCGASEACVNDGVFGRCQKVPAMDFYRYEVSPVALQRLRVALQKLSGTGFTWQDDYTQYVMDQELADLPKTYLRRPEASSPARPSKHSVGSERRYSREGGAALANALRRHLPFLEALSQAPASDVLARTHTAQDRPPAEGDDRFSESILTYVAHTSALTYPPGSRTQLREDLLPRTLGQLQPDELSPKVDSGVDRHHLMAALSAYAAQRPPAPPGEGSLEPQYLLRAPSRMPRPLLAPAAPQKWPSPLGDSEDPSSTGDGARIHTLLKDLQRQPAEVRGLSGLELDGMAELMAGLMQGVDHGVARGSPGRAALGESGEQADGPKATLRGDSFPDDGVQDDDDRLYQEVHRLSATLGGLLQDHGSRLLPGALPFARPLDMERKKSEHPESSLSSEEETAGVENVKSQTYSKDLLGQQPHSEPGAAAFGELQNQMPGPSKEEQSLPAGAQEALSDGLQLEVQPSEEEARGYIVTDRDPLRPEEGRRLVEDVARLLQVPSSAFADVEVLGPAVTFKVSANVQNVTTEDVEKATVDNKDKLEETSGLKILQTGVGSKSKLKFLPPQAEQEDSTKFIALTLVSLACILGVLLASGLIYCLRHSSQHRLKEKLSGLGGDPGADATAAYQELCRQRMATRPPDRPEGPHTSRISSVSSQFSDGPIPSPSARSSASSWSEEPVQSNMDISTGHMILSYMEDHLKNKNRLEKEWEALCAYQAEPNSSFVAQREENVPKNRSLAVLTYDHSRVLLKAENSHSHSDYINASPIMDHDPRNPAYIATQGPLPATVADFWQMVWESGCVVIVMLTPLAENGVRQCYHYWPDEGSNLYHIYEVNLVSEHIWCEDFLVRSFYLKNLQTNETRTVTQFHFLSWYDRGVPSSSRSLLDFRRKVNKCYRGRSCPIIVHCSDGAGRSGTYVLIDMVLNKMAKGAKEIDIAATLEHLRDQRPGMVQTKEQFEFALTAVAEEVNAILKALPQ
UniProt Q8TCF1: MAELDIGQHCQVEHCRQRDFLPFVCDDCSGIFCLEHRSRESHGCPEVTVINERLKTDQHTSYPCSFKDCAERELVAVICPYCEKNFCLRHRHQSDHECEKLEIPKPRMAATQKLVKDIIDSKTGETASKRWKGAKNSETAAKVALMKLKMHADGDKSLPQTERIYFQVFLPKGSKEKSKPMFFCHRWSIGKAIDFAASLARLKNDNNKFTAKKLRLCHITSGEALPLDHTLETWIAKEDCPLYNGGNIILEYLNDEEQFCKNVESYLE
UniProt Q9NYL4: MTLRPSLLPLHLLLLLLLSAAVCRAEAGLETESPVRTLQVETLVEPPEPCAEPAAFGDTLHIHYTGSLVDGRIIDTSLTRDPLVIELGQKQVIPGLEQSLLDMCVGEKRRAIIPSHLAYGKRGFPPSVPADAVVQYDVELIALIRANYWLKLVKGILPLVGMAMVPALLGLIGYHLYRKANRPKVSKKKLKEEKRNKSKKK
UniProt Q04637, whole entry: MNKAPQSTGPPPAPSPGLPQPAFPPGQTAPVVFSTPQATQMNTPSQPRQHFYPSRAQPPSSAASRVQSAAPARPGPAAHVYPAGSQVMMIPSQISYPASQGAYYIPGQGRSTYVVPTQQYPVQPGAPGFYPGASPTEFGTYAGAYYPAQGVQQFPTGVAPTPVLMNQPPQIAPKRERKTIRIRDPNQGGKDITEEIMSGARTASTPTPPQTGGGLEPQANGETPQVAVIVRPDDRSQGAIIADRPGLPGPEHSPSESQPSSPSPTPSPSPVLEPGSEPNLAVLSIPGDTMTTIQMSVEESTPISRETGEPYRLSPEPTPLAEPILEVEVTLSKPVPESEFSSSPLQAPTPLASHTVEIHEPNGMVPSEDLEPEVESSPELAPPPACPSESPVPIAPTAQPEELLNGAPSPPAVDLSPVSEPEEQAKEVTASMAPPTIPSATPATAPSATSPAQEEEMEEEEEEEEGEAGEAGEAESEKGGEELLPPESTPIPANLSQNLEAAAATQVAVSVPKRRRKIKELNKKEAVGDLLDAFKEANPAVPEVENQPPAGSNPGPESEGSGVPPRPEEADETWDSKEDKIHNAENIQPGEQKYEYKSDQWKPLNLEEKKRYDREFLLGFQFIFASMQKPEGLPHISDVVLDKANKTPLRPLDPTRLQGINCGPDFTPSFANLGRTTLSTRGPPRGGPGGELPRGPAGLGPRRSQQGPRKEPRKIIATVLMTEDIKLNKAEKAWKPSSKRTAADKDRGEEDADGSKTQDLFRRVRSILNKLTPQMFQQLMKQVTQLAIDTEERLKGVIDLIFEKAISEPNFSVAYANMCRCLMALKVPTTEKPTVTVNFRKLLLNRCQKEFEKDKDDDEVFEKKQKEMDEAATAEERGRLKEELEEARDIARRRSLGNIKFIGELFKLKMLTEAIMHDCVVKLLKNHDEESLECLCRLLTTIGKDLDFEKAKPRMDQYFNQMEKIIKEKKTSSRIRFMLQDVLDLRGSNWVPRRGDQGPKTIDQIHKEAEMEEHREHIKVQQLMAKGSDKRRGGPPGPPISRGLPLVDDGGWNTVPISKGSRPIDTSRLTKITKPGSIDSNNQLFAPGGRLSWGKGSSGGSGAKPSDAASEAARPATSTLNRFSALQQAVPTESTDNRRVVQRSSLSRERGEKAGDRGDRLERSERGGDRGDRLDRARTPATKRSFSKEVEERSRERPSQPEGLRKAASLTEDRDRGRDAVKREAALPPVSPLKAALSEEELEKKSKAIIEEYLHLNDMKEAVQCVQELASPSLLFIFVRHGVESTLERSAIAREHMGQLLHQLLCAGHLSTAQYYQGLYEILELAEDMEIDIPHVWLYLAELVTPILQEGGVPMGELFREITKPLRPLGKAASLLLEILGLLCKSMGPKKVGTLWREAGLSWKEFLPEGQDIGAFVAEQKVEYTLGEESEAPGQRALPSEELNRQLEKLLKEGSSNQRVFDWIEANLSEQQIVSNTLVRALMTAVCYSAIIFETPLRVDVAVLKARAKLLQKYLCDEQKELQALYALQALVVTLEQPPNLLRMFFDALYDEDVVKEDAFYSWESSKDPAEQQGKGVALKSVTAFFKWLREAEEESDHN
UniProt Q99590: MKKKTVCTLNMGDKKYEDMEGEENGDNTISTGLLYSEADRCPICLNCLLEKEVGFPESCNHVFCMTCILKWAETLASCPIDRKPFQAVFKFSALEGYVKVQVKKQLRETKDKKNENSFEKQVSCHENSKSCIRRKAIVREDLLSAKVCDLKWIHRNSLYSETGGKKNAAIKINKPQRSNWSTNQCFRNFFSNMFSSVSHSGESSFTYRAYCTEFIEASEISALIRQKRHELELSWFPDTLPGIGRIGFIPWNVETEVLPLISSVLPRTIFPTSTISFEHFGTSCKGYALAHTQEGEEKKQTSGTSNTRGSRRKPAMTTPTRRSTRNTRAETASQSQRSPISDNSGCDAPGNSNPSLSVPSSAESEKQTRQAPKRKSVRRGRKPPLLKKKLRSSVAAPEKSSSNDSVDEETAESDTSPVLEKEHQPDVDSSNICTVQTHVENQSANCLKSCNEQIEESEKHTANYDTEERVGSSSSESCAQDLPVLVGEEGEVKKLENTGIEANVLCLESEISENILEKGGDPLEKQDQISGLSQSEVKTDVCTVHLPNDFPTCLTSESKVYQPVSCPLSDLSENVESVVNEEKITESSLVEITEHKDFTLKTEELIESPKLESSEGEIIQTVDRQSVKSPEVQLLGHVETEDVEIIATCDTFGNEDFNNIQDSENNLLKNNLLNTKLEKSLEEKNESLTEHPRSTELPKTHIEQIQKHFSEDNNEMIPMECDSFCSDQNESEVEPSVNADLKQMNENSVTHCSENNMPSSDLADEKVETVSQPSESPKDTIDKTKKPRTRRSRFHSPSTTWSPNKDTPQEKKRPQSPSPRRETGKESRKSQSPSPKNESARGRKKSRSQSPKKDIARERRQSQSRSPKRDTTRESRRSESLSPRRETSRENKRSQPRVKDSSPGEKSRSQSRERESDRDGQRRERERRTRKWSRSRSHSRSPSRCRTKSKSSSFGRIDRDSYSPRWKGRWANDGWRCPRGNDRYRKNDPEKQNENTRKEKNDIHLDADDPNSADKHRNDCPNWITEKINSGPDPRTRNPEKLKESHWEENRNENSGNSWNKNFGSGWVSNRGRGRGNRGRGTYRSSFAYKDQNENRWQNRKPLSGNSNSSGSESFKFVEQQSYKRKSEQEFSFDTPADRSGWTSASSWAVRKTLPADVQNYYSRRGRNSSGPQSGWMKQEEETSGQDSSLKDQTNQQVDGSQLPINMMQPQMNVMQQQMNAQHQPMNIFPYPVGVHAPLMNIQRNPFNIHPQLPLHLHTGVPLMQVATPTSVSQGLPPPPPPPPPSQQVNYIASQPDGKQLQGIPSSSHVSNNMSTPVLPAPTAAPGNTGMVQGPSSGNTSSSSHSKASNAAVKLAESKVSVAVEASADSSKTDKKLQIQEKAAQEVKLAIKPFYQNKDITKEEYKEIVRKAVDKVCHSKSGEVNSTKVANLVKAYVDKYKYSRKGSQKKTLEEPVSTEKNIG
UniProt Q14534: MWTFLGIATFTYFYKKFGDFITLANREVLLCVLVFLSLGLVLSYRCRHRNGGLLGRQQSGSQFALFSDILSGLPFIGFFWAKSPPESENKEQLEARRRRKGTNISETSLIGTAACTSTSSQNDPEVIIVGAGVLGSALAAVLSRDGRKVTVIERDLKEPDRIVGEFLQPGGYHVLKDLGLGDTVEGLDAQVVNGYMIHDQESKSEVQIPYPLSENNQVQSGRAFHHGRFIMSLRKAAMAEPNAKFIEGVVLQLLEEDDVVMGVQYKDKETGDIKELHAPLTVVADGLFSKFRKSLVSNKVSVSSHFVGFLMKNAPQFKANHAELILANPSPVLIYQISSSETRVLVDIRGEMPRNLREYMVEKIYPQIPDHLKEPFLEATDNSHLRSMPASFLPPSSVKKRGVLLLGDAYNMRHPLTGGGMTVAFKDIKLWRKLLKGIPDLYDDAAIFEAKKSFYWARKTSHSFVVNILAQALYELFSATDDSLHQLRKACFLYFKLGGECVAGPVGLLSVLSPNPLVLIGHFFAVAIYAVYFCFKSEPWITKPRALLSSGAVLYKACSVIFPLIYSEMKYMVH
UniProt Q9H7P6: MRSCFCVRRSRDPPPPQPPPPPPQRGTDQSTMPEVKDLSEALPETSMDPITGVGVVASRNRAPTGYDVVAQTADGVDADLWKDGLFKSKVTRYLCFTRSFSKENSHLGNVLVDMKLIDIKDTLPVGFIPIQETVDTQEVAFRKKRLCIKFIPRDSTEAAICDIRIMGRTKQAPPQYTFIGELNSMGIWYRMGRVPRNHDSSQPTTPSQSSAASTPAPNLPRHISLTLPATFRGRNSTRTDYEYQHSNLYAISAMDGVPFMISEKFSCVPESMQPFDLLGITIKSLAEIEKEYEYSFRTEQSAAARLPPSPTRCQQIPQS
UniProt P27816: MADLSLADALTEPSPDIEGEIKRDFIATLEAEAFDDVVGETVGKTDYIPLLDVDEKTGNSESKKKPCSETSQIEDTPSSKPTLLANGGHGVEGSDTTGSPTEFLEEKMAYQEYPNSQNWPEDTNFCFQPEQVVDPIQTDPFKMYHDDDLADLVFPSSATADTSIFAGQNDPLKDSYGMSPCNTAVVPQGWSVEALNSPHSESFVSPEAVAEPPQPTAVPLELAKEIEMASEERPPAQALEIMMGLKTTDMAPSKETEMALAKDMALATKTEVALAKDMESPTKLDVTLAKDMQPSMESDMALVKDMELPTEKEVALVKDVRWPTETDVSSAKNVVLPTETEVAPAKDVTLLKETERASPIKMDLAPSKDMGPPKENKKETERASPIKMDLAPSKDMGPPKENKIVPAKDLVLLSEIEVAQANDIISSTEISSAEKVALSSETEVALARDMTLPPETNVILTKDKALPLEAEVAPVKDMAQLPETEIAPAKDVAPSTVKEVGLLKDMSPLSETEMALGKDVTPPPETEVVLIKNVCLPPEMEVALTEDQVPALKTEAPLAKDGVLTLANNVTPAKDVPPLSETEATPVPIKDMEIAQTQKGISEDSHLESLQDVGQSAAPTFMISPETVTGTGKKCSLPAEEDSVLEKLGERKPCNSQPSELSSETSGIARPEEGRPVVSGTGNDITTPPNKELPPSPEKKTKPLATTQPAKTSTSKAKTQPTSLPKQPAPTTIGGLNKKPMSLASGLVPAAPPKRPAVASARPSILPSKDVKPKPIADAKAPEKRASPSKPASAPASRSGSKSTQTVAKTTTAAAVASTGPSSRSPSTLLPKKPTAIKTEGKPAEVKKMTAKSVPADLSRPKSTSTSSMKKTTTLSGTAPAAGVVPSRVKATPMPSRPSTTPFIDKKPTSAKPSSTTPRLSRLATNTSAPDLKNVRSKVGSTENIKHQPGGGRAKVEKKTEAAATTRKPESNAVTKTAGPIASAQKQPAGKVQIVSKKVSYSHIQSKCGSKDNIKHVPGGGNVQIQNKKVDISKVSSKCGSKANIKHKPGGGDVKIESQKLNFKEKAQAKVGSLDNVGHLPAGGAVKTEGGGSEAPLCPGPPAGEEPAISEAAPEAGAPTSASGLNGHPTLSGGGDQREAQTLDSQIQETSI

Compound in this assay: Nc1ncnc2c1ncn2[C@@H]1O[C@H](COP(=O)(O)OP(=O)(O)NP(=O)(O)O)[C@@H](O)[C@H]1O [adenylyl imidodiphosphate]
Kind of assay: NP40-soluble protein abundance relative to vehicle (solubility fold change) (ratio); higher = more soluble protein in presence of AMP-PNP. A digest of the protocol: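 Values are fold changes against the detergent-processed vehicle, based on vsn-normalised intensities. Jurkat crude lysate was treated at eight concentrations from 0.1 to 10 mM (10 min at room temperature, then 3 min at 37 °C), solubilised with 0.8% NP40 and benzonase, ultracentrifuged and analysed by TMT-labelled LC-MS/MS over three independent experiments.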

± gives the standard deviation of the averaged measurements. This is a selection; strong and weak results do not stand in their true shares. Most entries show no effect beyond the scatter of the controls.

For “F5H5P2 and related entries (UniProt P12694+F5H5P2)”, the NP40-soluble protein abundance reads like this: (concentration: 0.1mM) 1.01 ± 0.045; (concentration: 0.5mM) 1.05 ± 0.046.

For “E7EM83 and related entries (UniProt Q92932)”, the NP40-soluble protein abundance reads like this: (concentration: 0.1mM) 1.0349 ± 3.5e-05; (concentration: 0.5mM) 1.01 ± 0.012.

With “E5RIS3 and related entries (UniProt Q8TCF1)”, the NP40-soluble protein abundance is, setting by setting: (concentration: 0.1mM) 0.98 ± 0.031; (concentration: 0.5mM) 0.957 ± 0.021.

For the target “F8VU90 and related entries (UniProt Q9NYL4)”, the NP40-soluble protein abundance runs as follows: (concentration: 0.1mM) 1.01 ± 0.057; (concentration: 0.5mM) 1.03 ± 0.053.

Regarding “E7EUU4 and related entries (UniProt Q04637)”, the NP40-soluble protein abundance (concentration: 0.1mM) turned out to be 1.03 ± 0.031 and the NP40-soluble protein abundance (concentration: 0.5mM) came out at 1.04 ± 0.038.

As for “F5H1N7 and related entries (UniProt Q6ZU35)”, the NP40-soluble protein abundance is, setting by setting: (concentration: 0.1mM) 1.01 ± 0.022; (concentration: 0.5mM) 1.04 ± 0.036.

For “E9PM51 and related entries (UniProt P32780)”, the NP40-soluble protein abundance came out at 0.999 ± 0.018 (concentration: 0.1mM) and 1 ± 0.016 (concentration: 0.5mM).

On to “E9PJ81 and related entries (UniProt Q04323)”, for which the NP40-soluble protein abundance by setting is: (concentration: 0.1mM) 1 ± 0.023; (concentration: 0.5mM) 1.01 ± 0.041.

“F8VXG7 and related entries (UniProt Q99590)”: the NP40-soluble protein abundance by setting is: (concentration: 0.1mM) 1.03 ± 0.029; (concentration: 0.5mM) 1.05 ± 0.05.

For the target “E7EVQ6 and related entries (UniProt Q14534)”, the NP40-soluble protein abundance by setting is: (concentration: 0.1mM) 1.03 ± 0.019; (concentration: 0.5mM) 1.05 ± 0.026.

Consider “E9PS74 and related entries (UniProt Q8NBI5)”, for which the NP40-soluble protein abundance runs as follows: (concentration: 0.1mM) 1.01 ± 0.037; (concentration: 0.5mM) 0.988 ± 0.032.

With “F5H365 and related entries (UniProt Q15436)”, the NP40-soluble protein abundance was determined as 1.02 ± 0.033 (concentration: 0.1mM) and 0.995 ± 0.041 (concentration: 0.5mM).

On to “E9PGC5 and related entries (UniProt Q15262)”, for which the NP40-soluble protein abundance (concentration: 0.1mM) stood at 0.996 ± 0.014 and the NP40-soluble protein abundance (concentration: 0.5mM) came to 0.9901 ± 0.0051.

As to “F8W922 and related entries (UniProt Q9H7P6)”, the NP40-soluble protein abundance by setting is: (concentration: 0.1mM) 1.017 ± 0.0083; (concentration: 0.5mM) 1.027 ± 0.0032.

As to “E9PBG7 and related entries (UniProt Q13557)”, the NP40-soluble protein abundance (concentration: 0.1mM) is 0.99 ± 0.05 and the NP40-soluble protein abundance (concentration: 0.5mM) was determined as 0.95 ± 0.023.

“E7EVA0 and related entries (UniProt P27816)”: the NP40-soluble protein abundance reads like this: (concentration: 0.1mM) 0.974 ± 0.011; (concentration: 0.5mM) 1.03 ± 0.069.
